Results reported in publication PMC11827841.
These are yes or no findings as the source states them, for the method shown. Binding seen in cells or lysates may run through a third protein.

Sequences of proteins named here, by UniProt entry; tags and fusion partners are left off. Residues count along the entry.
UniProt Q6YHK3, residues 22-1420: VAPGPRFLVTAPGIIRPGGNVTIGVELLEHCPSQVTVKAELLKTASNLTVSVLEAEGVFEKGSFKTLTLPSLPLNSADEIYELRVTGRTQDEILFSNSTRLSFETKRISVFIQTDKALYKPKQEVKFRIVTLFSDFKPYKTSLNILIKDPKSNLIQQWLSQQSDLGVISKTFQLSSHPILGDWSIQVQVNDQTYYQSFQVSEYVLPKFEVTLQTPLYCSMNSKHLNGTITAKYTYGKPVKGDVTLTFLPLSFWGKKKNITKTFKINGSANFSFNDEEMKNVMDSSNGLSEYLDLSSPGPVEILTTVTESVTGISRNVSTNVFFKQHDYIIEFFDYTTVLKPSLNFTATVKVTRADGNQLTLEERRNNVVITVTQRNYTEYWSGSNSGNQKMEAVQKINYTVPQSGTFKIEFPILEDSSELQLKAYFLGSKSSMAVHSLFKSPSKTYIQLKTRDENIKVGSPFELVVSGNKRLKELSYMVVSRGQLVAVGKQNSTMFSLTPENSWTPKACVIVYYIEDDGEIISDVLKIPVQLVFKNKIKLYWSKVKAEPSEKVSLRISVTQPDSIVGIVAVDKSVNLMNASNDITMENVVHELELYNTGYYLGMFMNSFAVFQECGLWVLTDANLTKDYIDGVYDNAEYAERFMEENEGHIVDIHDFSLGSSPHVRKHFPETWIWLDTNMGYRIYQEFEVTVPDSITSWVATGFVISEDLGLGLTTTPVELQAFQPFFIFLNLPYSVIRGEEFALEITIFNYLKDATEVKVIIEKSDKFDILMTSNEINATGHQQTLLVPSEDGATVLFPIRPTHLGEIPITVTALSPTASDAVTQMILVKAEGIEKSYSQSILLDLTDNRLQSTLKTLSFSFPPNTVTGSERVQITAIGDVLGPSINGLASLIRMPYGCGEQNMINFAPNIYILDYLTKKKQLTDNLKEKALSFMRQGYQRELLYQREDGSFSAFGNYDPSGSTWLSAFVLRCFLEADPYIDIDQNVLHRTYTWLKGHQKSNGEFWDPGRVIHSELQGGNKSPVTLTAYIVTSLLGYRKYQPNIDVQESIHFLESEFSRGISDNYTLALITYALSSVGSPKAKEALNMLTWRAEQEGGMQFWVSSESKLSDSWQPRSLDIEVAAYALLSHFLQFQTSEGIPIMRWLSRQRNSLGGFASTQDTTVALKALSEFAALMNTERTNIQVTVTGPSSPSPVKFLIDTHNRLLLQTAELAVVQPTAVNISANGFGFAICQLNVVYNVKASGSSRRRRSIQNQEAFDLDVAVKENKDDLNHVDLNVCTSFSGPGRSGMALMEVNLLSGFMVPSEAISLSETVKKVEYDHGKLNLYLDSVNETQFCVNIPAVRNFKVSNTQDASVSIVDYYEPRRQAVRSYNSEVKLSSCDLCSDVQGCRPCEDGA
UniProt F5HB81, residues 27-845: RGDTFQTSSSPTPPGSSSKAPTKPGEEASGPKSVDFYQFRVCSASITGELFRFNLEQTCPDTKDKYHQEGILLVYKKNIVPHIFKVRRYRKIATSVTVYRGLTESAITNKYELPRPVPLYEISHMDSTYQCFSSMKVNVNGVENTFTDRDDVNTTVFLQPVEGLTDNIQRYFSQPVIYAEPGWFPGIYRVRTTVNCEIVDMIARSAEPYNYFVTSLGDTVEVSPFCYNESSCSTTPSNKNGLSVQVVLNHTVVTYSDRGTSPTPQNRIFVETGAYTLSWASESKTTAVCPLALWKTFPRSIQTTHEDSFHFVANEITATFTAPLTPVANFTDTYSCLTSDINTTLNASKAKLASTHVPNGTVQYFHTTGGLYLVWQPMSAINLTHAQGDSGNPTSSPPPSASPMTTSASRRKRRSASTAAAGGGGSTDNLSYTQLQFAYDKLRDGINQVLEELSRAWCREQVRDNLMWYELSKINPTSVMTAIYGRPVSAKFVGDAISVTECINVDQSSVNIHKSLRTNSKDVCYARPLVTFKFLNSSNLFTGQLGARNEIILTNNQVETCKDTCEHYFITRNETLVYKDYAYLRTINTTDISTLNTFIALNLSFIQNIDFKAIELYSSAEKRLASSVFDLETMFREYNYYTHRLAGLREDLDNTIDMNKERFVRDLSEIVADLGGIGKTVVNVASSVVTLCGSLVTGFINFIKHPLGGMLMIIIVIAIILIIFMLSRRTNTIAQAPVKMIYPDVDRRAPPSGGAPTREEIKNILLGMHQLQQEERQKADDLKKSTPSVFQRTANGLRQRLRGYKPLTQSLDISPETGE

Molecular target: 3xFLAG-CD109 (human) (UniProt Q6YHK3)
Assay: co-IP; HEK-293T cells cotransfected with 3xFLAG-CD109 and tagged KSHV glycoproteins for 24 hours; 500 ug lysate on anti-FLAG magnetic agarose beads, room temperature 20 minutes, eluted with 0.1 M glycine pH 2.8; immunoblot

## KSHV glycoprotein gB-3xHA (from UniProt F5HB81 27-845)
  binding: no binding
